Results are given in words; binding and its absence hold for the method and conditions named. Binding seen in cells or lysates may run through a third protein. Some entries that bind do so weakly or less than the wild type.

Amino acid sequences for entries named in this document (tags omitted).
UniProt P35222: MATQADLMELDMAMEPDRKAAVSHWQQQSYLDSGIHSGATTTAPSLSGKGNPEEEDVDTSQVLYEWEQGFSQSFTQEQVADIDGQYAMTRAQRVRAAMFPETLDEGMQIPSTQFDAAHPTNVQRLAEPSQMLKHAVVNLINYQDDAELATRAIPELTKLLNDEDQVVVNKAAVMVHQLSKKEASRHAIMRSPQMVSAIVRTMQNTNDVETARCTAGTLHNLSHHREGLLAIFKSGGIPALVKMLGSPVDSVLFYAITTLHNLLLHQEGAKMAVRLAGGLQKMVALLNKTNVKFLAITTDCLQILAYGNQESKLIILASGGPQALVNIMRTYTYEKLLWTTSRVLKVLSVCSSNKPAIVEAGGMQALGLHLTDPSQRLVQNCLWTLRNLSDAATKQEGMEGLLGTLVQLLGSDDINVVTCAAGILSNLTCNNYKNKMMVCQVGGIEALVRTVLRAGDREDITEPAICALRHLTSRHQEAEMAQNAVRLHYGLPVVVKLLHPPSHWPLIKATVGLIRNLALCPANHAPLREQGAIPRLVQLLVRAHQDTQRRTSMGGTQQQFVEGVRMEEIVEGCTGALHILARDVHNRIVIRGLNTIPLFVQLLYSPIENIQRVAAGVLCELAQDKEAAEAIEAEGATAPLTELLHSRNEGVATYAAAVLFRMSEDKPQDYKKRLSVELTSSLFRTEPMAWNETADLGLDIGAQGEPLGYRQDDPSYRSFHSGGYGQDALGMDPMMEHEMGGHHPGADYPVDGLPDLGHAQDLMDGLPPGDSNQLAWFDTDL

Assay [1] addresses c-Jun (human (endogenous in J-pouch organoids)) (UniProt P05412). As to the kind of experiment: co-IP.
Assay [2] addresses T1, c-Jun (human (endogenous in J-pouch organoids)), P05412.
T1 chain: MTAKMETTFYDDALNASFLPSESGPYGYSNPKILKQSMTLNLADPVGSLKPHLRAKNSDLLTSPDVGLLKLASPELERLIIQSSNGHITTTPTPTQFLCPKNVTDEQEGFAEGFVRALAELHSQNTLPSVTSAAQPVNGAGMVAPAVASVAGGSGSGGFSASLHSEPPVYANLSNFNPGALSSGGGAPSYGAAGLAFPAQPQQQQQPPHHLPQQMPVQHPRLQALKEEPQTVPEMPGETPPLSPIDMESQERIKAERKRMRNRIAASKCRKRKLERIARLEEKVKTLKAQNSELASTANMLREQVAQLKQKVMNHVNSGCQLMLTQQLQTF
The experiment in a line: co-IP. The following applies: remark: other sources report otherwise.

In the case of β-catenin (from UniProt P35222 1-781), the binding entry in assay [1] was “binds”.

B1: JUNB, P17275 1-347 (protein)
chain: MCTKMEQPFYHDDSYTATGYGRAPGGLSLHDYKLLKPSLAVNLADPYRSLKAPGARGPGPEGGGGGSYFSGQGSDTGASLKLASSELERLIVPNSNGVITTTPTPPGQYFYPRGGGSGGGAGGAGGGVTEEQEGFADGFVKALDDLHKMNHVTPPNVSLGATGGPPAGPGGVYAGPEPPPVYTNLSSYSPASASSGGAGAAVGTGSSYPTTTISYLPHAPPFAGGHPAQLGLGRGASTFKEEPQTVPEARSRDATPPVSPINMEDQERIKVERKRLRNRLAATKCRKRKLERIARLEDKVKTLKAENAGLSSTAGLLREQVAQLKQKVMTHVSNGCQLLLGVKGHAF
For B1, the binding result in assay [2] is given as “binds”.

B2: FRA1 (protein, UniProt P15407 1-271)
chain: MFRDFGEPGPSSGNGGGYGGPAQPPAAAQAAQQKFHLVPSINTMSGSQELQWMVQPHFLGPSSYPRPLTYPQYSPPQPRPGVIRALGPPPGVRRRPCEQISPEEEERRRVRRERNKLAAAKCRNRRKELTDFLQAETDKLEDEKSGLQREIEELQKQKERLELVLEAHRPICKIPEGAKEGDTGSTSGTSSPPAPCRPVPCISLSPGPVLEPEALHTPTLMTTPSLTPFTPSLVFTYPSTPEPCASAHRKSSSSSGDPSSDPLGSPTLLAL
Consider B2, for which the binding result in assay [1] was “binds”.

B3: BATF (protein, UniProt Q16520 1-125)
chain: MPHSSDSSDSSFSRSPPPGKQDSSDDVRRVQRREKNRIAAQKSRQRQTQKADTLHLESEDLEKQNAALRKEIKQLTEELKYFTSVLNSHEPLCSVLAASTPSPPEVVYSAHAFHQPHVSSPRFQP
As to B3, the binding result in assay [1] is listed as “binds”.

(Values after article doi:10.1101/2025.03.19.644201.)
